In PMC10777984:
Results are given in words; binding and its absence hold for the method and conditions named. Binding seen in cells or lysates may run through a third protein. Some results given as binding are weak or reduced against the parent protein; the word gives no strength.

Chains of the proteins cited; added tags and fusions are not shown. Residues count along the entry.
UniProt Q13224, residues 27-1484: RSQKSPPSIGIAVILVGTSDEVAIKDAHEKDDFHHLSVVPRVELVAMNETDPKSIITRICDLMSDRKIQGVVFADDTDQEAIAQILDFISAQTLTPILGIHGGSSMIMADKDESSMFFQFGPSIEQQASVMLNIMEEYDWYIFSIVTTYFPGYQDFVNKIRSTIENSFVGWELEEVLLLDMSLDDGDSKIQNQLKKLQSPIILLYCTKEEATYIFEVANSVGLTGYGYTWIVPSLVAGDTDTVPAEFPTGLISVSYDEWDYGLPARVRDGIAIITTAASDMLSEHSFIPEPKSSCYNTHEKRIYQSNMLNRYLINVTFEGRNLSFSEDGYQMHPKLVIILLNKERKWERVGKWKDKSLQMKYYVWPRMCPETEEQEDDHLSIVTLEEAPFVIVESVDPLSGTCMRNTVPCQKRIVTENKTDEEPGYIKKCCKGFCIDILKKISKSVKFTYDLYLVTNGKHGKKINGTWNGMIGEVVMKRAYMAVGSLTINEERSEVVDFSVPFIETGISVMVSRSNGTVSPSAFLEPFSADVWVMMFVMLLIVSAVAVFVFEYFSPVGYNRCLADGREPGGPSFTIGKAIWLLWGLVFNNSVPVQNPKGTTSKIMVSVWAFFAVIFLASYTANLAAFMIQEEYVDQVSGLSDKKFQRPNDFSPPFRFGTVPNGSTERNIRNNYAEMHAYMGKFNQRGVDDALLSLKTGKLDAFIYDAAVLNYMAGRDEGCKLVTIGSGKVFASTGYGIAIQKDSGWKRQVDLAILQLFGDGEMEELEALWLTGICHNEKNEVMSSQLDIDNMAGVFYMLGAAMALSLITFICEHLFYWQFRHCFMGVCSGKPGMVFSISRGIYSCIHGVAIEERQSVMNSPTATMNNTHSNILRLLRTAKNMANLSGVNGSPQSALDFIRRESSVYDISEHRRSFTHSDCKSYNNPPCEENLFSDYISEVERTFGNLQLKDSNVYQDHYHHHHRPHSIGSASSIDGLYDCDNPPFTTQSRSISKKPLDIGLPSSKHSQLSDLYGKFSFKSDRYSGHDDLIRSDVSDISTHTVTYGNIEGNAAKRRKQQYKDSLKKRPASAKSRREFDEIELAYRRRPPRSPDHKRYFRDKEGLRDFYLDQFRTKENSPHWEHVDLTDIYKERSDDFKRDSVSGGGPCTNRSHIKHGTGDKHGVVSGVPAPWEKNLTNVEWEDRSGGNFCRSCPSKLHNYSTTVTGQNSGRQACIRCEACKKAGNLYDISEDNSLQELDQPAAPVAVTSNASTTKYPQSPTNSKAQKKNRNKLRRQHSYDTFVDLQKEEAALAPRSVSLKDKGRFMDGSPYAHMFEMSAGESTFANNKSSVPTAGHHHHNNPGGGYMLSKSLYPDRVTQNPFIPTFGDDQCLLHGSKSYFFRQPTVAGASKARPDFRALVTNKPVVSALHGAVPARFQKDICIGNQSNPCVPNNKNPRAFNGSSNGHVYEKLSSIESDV
UniProt P08581, residues 25-1390: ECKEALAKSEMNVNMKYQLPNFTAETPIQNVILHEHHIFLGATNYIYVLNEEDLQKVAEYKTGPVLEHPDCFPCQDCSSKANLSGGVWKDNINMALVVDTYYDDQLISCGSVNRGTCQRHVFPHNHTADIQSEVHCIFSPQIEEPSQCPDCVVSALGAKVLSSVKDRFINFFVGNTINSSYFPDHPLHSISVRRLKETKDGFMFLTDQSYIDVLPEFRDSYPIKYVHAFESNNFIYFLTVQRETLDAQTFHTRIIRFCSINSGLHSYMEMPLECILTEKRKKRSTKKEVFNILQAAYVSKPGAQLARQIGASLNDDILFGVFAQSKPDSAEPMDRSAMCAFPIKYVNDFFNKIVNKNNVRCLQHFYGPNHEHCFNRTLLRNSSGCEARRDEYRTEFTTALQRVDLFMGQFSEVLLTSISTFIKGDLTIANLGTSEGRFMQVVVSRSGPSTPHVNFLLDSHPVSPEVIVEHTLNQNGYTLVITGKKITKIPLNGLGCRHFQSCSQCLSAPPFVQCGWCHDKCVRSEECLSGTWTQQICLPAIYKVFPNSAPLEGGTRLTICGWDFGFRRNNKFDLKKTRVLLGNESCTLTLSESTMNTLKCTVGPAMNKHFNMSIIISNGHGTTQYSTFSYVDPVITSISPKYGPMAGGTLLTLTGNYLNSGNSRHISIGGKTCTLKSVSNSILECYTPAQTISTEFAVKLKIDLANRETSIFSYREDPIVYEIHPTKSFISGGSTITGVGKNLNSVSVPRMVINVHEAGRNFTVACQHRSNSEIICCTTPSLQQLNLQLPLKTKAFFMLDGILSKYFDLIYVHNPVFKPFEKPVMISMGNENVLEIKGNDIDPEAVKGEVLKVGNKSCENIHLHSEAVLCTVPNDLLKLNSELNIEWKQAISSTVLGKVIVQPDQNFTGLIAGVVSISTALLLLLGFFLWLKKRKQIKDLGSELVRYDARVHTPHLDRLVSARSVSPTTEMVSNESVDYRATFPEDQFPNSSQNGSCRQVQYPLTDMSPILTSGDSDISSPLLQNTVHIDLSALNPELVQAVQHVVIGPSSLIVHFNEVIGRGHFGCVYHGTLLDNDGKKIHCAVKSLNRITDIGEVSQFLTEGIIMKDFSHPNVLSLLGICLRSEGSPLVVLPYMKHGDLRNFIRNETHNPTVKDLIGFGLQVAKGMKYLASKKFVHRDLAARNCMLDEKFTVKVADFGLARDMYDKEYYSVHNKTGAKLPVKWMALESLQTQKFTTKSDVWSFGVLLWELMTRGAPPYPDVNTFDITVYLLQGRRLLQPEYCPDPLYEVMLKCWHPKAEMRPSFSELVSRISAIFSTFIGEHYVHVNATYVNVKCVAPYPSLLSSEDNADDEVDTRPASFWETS

Biological target: NMDAR2B with a Flag tag, uncleaved 160 kDa form, transfected in Hek293T cells (human (from the printed GenBank entry NM_000834.5)) (UniProt Q13224)
Assay: co-IP; Hek293T transfected 24 h with NMDAR2B-Flag and MET-His (wild type or kinase-dead), alone or together; RIPA lysate, IP with anti-Flag or anti-His Tag antibody and protein A sepharose; blots for C-terminal NMDAR2B and MET

binding: binds
Substance: MET wild type with a His tag, transfected in Hek293T cells (from UniProt P08581-1 25-1390) (receptor)
